Data source: PubChem BioAssay AID1224829 (NIAID, 2016)

Screen: 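Genes needed for LPS-driven NF-kappaB p65 nuclear entry in mouse macrophages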 (follow-up of hits)
Cell system: mouse RAW264.7 G9 macrophage reporter cells
Reagents: single siRNA against mouse genes, 100 nM
Timing: 2 days of siRNA knock-down, then 40 min of LPS before fixing
Conditions: LPS (Salmonella minnesota R595) at 10 ng/ml
Read-out: 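High-content images after 40 min LPS exposure; GFP-p65 nucleus to surrounding ring signal ratio, normalised to plate median and non-targeting control wells, expressed as z-score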
Reading the numbers: p65 translocation z-score: higher = more nuclear NF-kappaB p65 after LPS
Rule for the call: 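Active means the replicate-mean z-score lies beyond plus or minus 2, in either direction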
Meaning of the calls: active = changed p65 translocation (either direction); inactive = no clear change
This is an unselected part of about 3,800 reagents tested. 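Calls cover raised and lowered translocation; gene median uses one vendor's three siRNAs; qiagen siRNAs acted more weakly than ambion siRNAs.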 Reagents against one gene are numbered here. Not all columns of the deposit are shown.

What is on record for E130006D01Rik #1, siRNA vendor or control pool ambion single siRNA?
p65 translocation z-score, replicate mean: -2.63; p65 translocation z-score, replicate 1: -3.37; Call: active

What is on record for E130006D01Rik #2, siRNA vendor or control pool ambion single siRNA?
p65 translocation z-score, replicate mean: -3.34; p65 translocation z-score, replicate 1: -4.41; Call: active

Which result is listed for E130006D01Rik #3, siRNA vendor or control pool ambion single siRNA?
p65 translocation z-score, replicate mean: 0.216; p65 translocation z-score, replicate 1: -0.102; Call: inactive

For E130006D01Rik #4, siRNA vendor or control pool qiagen single siRNA, what does the deposit list?
p65 translocation z-score, replicate mean: 1.33; p65 translocation z-score, replicate 1: 0.422; Call: inactive

What did the screen give for E130006D01Rik #5, siRNA vendor or control pool qiagen single siRNA?
p65 translocation z-score, replicate mean: -3.63; p65 translocation z-score, replicate 1: -2.47; Call: active

Which result is listed for E130006D01Rik #6, siRNA vendor or control pool qiagen single siRNA?
p65 translocation z-score, replicate mean: -0.881; p65 translocation z-score, replicate 1: -1.09; Call: inactive

For Dnajc27 #1, siRNA vendor or control pool ambion single siRNA, what was measured?
p65 translocation z-score, replicate mean: -2.53; p65 translocation z-score, replicate 1: -2.5; Call: active

What did the screen give for Dnajc27 #2, siRNA vendor or control pool ambion single siRNA?
p65 translocation z-score, replicate mean: -2.12; p65 translocation z-score, replicate 1: -2.61; Call: active

For Dnajc27 #3, siRNA vendor or control pool ambion single siRNA, what was measured?
p65 translocation z-score, replicate mean: -4.06; p65 translocation z-score, replicate 1: -4.06; Call: active

How did the screen score Dnajc27 #4, siRNA vendor or control pool qiagen single siRNA?
p65 translocation z-score, replicate mean: 1.08; p65 translocation z-score, replicate 1: 0.135; Call: inactive

How did the screen score Dnajc27 #5, siRNA vendor or control pool qiagen single siRNA?
p65 translocation z-score, replicate mean: -0.0829; p65 translocation z-score, replicate 1: -0.0574; Call: inactive

With Dnajc27 #6, siRNA vendor or control pool qiagen single siRNA, what was measured?
p65 translocation z-score, replicate mean: -2.86; p65 translocation z-score, replicate 1: -2.54; Call: active

For Or2z9 #1, siRNA vendor or control pool qiagen single siRNA, how do the results read?
p65 translocation z-score, replicate mean: -1.19; p65 translocation z-score, replicate 1: -0.672; Call: inactive

For Or2z9 #2, siRNA vendor or control pool qiagen single siRNA, how do the results read?
p65 translocation z-score, replicate mean: 1.2; p65 translocation z-score, replicate 1: 1.19; Call: inactive

What is on record for Or2z9 #3, siRNA vendor or control pool qiagen single siRNA?
p65 translocation z-score, replicate mean: 1.17; p65 translocation z-score, replicate 1: 0.508; Call: inactive

Which result is listed for Csn1s2a #1, siRNA vendor or control pool ambion single siRNA?
p65 translocation z-score, replicate mean: -2.62; p65 translocation z-score, replicate 1: -1.91; Call: active

How did the screen score Csn1s2a #2, siRNA vendor or control pool ambion single siRNA?
p65 translocation z-score, replicate mean: -0.918; p65 translocation z-score, replicate 1: 0.247; Call: inactive

For Csn1s2a #3, siRNA vendor or control pool ambion single siRNA, what was measured?
p65 translocation z-score, replicate mean: 0.135; p65 translocation z-score, replicate 1: 0.661; Call: inactive

With Csn1s2a #4, siRNA vendor or control pool qiagen single siRNA, what does the deposit list?
p65 translocation z-score, replicate mean: 0.932; p65 translocation z-score, replicate 1: 1.38; Call: inactive

What is on record for Csn1s2a #5, siRNA vendor or control pool qiagen single siRNA?
p65 translocation z-score, replicate mean: 0.872; p65 translocation z-score, replicate 1: 1.32; Call: inactive

With Csn1s2a #6, siRNA vendor or control pool qiagen single siRNA, how do the results read?
p65 translocation z-score, replicate mean: 0.74; p65 translocation z-score, replicate 1: 0.323; Call: inactive

What did the screen give for Zfp935 #1, siRNA vendor or control pool ambion single siRNA?
p65 translocation z-score, replicate mean: -2.12; p65 translocation z-score, replicate 1: -1.18; Call: active

For Zfp935 #2, siRNA vendor or control pool ambion single siRNA, what was measured?
p65 translocation z-score, replicate mean: -4.82; p65 translocation z-score, replicate 1: -4.82; Call: active

Which result is listed for Zfp935 #3, siRNA vendor or control pool ambion single siRNA?
p65 translocation z-score, replicate mean: -3.2; p65 translocation z-score, replicate 1: -1.44; Call: active

With Zfp935 #4, siRNA vendor or control pool qiagen single siRNA, what does the deposit list?
p65 translocation z-score, replicate mean: -1.97; p65 translocation z-score, replicate 1: -3.16; Call: inactive

With Zfp935 #5, siRNA vendor or control pool qiagen single siRNA, how do the results read?
p65 translocation z-score, replicate mean: -1.36; p65 translocation z-score, replicate 1: -2.94; Call: inactive

How did the screen score Zfp935 #6, siRNA vendor or control pool qiagen single siRNA?
p65 translocation z-score, replicate mean: 0.607; p65 translocation z-score, replicate 1: 0.25; Call: inactive

For Zdhhc9 #1, siRNA vendor or control pool ambion single siRNA, how do the results read?
p65 translocation z-score, replicate mean: 0.226; p65 translocation z-score, replicate 1: 0.617; Call: inactive

For Zdhhc9 #2, siRNA vendor or control pool ambion single siRNA, how do the results read?
p65 translocation z-score, replicate mean: -3.4; p65 translocation z-score, replicate 1: -2.87; Call: active

With Zdhhc9 #3, siRNA vendor or control pool ambion single siRNA, what does the deposit list?
p65 translocation z-score, replicate mean: -2.1; p65 translocation z-score, replicate 1: -2.8; Call: active

For Zdhhc9 #4, siRNA vendor or control pool qiagen single siRNA, what does the deposit list?
p65 translocation z-score, replicate mean: 3.18; p65 translocation z-score, replicate 1: 2.75; Call: active

For Zdhhc9 #5, siRNA vendor or control pool qiagen single siRNA, how do the results read?
p65 translocation z-score, replicate mean: 2.91; p65 translocation z-score, replicate 1: 2.01; Call: active

What is on record for Zdhhc9 #6, siRNA vendor or control pool qiagen single siRNA?
p65 translocation z-score, replicate mean: 0.0809; p65 translocation z-score, replicate 1: -0.3; Call: inactive

Which result is listed for Or12e9 #1, siRNA vendor or control pool ambion single siRNA?
p65 translocation z-score, replicate mean: -2.99; p65 translocation z-score, replicate 1: -3.74; Call: active

With Or12e9 #2, siRNA vendor or control pool ambion single siRNA, what does the deposit list?
p65 translocation z-score, replicate mean: 3.54; p65 translocation z-score, replicate 1: 4.03; Call: active

With Or12e9 #3, siRNA vendor or control pool ambion single siRNA, what was measured?
p65 translocation z-score, replicate mean: -1.13; p65 translocation z-score, replicate 1: -0.949; Call: inactive

Which result is listed for Or12e9 #4, siRNA vendor or control pool qiagen single siRNA?
p65 translocation z-score, replicate mean: 1.39; p65 translocation z-score, replicate 1: -0.189; Call: inactive

What did the screen give for Or12e9 #5, siRNA vendor or control pool qiagen single siRNA?
p65 translocation z-score, replicate mean: 0.507; p65 translocation z-score, replicate 1: -0.192; Call: inactive

With Or12e9 #6, siRNA vendor or control pool qiagen single siRNA, what was measured?
p65 translocation z-score, replicate mean: -1.8; p65 translocation z-score, replicate 1: -1.58; Call: inactive

Not a retest: 5 of the entries above.
E130006D01Rik #6, siRNA vendor or control pool qiagen single siRNA | p65 translocation z-score, replicate mean: -0.881; p65 translocation z-score, replicate 1: -1.09; Call: inactive
Dnajc27 #1, siRNA vendor or control pool ambion single siRNA | p65 translocation z-score, replicate mean: -2.53; p65 translocation z-score, replicate 1: -2.5; Call: active
Dnajc27 #2, siRNA vendor or control pool ambion single siRNA | p65 translocation z-score, replicate mean: -2.12; p65 translocation z-score, replicate 1: -2.61; Call: active
Dnajc27 #3, siRNA vendor or control pool ambion single siRNA | p65 translocation z-score, replicate mean: -4.06; p65 translocation z-score, replicate 1: -4.06; Call: active
Dnajc27 #4, siRNA vendor or control pool qiagen single siRNA | p65 translocation z-score, replicate mean: 1.08; p65 translocation z-score, replicate 1: 0.135; Call: inactive
